# The list shows a part of the results. The main result of the screen is listed elsewhere. These columns were measured beside it and carry no call. Most of these compounds were active or inconclusive in the main read-out, so they are no random draw. Words in brackets tell the shape of the fitted curve; partial curves, single points and poor fits give uncertain potencies.
# Experiment: Cell signaling CRE-BLA (Fsk stim)
# Settings: CHO CRE-bla reporter (cAMP response element driving beta-lactamase), forskolin EC10, beta-lactamase ratio; measured here: 460 nm blue channel
# Summary of the method: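 CRE-bla CHO cells stimulated with EC10 NKH 477 (water-soluble forskolin) and compound titrations, 3 h at 37C; beta-lactamase read with CCF4 after 2 h at room temperature. Activity from 460/530 nm emission ratio, AC50 values for positive or negative modulation.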
row,SMILES,AC50
1,O=c1sc(N2CCN(c3ccccc3F)CC2)nc2ccsc12,"15.8 µM [rising, partial curve]"
2,Cc1ccc(S(=O)(=O)c2c(N)n(NC(=O)C3CC3)c3nc4ccccc4nc23)cc1,"12.6 µM [rising, single point]"
3,CCCc1nnc(SCC(=O)Nc2ccc(OCC)cc2)n1N,"3.16 µM [falling, single point]"
4,CCOC(=O)C1CCN(Cc2ccc(O)c(OC)c2)CC1,"0.0631 µM [rising, full curve]"
5,Nc1c(NCc2ccccc2F)c(=O)[nH]c(=O)n1Cc1ccccc1,"12.6 µM [rising, single point]"
6,c1ccc(-c2csc3ncnc(NCCN4CCOCC4)c23)cc1,"0.00316 µM [rising, full curve, poor fit]"
7,O=C(O)COc1ccc(S(=O)(=O)c2ccc(OCC(=O)O)cc2)cc1,"0.501 µM [rising, partial curve]"
8,Cn1c(=O)c2c(nc(Br)n2CCc2ccccc2)n(C)c1=O,"10 µM [rising, single point]"
9,Cc1cccc(-c2c3c(=O)n(C)c(=O)n(C)c3cn2CCO)c1,"0.1 µM [falling, full curve, poor fit]"
10,Cc1occc1-c1nnc(SCC(=O)Nc2ccccc2)n1CCc1ccccc1,"12.6 µM [falling, single point]"
11,Cn1c(=O)[nH]c2cc3ccccc3cc21,"0.398 µM [falling, full curve]"
12,COC(=O)c1ccc(Cn2cnc3c(cnn3-c3ccc(Cl)cc3)c2=O)o1,"3.16 µM [rising, full curve]"
13,COc1cc(SC)ccc1C(=O)NC1CCCCC1,"1 µM [falling, partial curve, poor fit]"
14,COCCNc1ncnc2ccc(-c3ccccc3C(F)(F)F)cc12,"3.16 µM [rising, full curve, poor fit]"
15,COC(=O)c1ccc(CSc2nc(-c3ccco3)cc(C(F)(F)F)n2)o1,"10 µM [rising, partial curve]"
16,Nc1nc(-c2c[nH]c3ccccc23)cs1,"0.251 µM [falling, full curve, poor fit]"
17,CCc1c(C)nc(SCC(=O)CC(=O)OC(C)C)c(C#N)c1C,"12.6 µM [rising, single point]"
18,CCOC(=O)c1coc(CNC(=O)c2c(C)oc3c2CCCC3)c1,"20 µM [rising, single point]"
19,COCCNC(=O)C1CC(c2cccc(OC)c2)=NO1 (centres undefined),"7.94 µM [falling, partial curve, poor fit]"
20,COc1ccc2ccccc2c1CN1CCN(C(=O)c2ccccc2)CC1,"0.0126 µM [falling, partial curve, poor fit]"
21,Cc1ccc2c(CC(=O)Nc3sccc3C(N)=O)coc2c1,"10 µM [rising, partial curve]"
22,CCOC(=O)c1cnn2c(C)cc(-c3ccc(F)cc3)nc12,"12.6 µM [rising, partial curve]"

# Sorted by molecular weight (largest number first): some entries from above.
row,SMILES,AC50
10,Cc1occc1-c1nnc(SCC(=O)Nc2ccccc2)n1CCc1ccccc1,"12.6 µM [falling, single point]"
8,Cn1c(=O)c2c(nc(Br)n2CCc2ccccc2)n(C)c1=O,"10 µM [rising, single point]"
1,O=c1sc(N2CCN(c3ccccc3F)CC2)nc2ccsc12,"15.8 µM [rising, partial curve]"

# Next compounds.

row,SMILES,AC50
1,CCOC(=O)c1c(COc2ccccc2)oc2ccc(O)cc12,"25.1 µM [falling, single point]"
2,COc1cccc(Cn2c(=O)c(-c3ccc(F)cc3)nc3cnc(N(C)C)nc32)c1,"1 µM [rising, full curve]"
3,O=C(NCc1ccccc1)c1cc(-c2cccs2)on1,"25.1 µM [falling, partial curve, poor fit]"
4,CC1CCC(NC(=O)Cn2c(=O)[nH]c3ccsc3c2=O)CC1 (centres undefined),"0.794 µM [rising, full curve, poor fit]"
5,Cc1cccc(C(=O)OCc2cc3ccccc3[nH]c2=O)c1,"25.1 µM [rising, single point]"
6,COc1ccc(-c2ccc(Nc3ccc(S(=O)(=O)N4CCCC4)cc3)nn2)cc1OC,"6.31 µM [rising, partial curve]"
7,C=CCn1c(SCc2cc(=O)n3ccsc3n2)nc2sc(C)c(C)c2c1=O,"0.316 µM [rising, full curve, poor fit]"
8,CN(Cc1ccco1)c1ccnc(-c2cccc(NS(C)(=O)=O)c2)n1,"7.94 µM [rising, partial curve]"
9,Cc1cc(C)n(-c2ccc(C(=O)OCC(=O)NCc3ccco3)cc2)n1,"25.1 µM [rising, single point]"
10,Cc1ccccc1Cn1c(CN2CCN(C(=O)c3ccco3)CC2)nc2c1c(=O)n(C)c(=O)n2C,"20 µM [falling, single point]"
11,c1ccc(SCc2nc(-c3ccccn3)no2)cc1,"0.00316 µM [falling, full curve, poor fit]"
12,O=c1c(-c2cccs2)nc2cnc(Oc3ccccc3)nc2n1C1CC1,"10 µM [rising, partial curve]"
13,COc1ccccc1N(C(=O)NCc1ccccc1)C1=NCC(C)S1 (centres undefined),"31.6 µM [falling, single point]"
14,COC(=O)c1c(NC(=O)c2ccco2)sc(C)c1C,"10 µM [rising, partial curve]"
15,COc1ccc(NC(=O)CSc2nc3ccccc3c(=O)n2CCC(=O)N2CCCCC2)cc1,"12.6 µM [rising, single point]"
16,O=c1c(CCc2ccccc2)nc2cnc(N3CCOCC3)nc2n1CCc1ccccc1,"12.6 µM [rising, single point]"
17,Cc1ccc(N2CC(c3nc4ccccc4n3C)CC2=O)cc1C (centres undefined),"7.94 µM [rising, partial curve]"
18,Cc1ccc(/C(COc2ccccc2O)=N\O)cc1,"5.01 µM [falling, partial curve]"
19,COc1ccc(C2c3c(-c4ccccc4O)n[nH]c3C(=O)N2CCc2ccc(OC)c(OC)c2)cc1 (centres undefined),"20 µM [falling, single point]"
20,CCOC(=O)c1c(-c2ccc(OC)cc2)nc2nonc2c1N,"15.8 µM [rising, single point]"
21,COc1ccc(-c2nc(C3CCCCC3)no2)cc1OC,"1 µM [rising, partial curve, poor fit]"
22,Cc1nc2cnc(OCc3ccccc3)nc2n(C)c1=O,"10 µM [rising, partial curve]"
